Patent publication US20200121706A1, “METHOD FOR INHIBITING MYOPIA AND APPLICATION IN PREPARING DRUG” (WENZHOU MEDICAL UNIVERSITY, priority 2017, published 2020)
At least one compound was matched to its structure with a doubt left.

Columns and labels:
Format in all cases: in vivo, Cavia porcellus
[1] = test system: form-deprivation myopia; assay: Monocular form-deprivation (FD) myopia model, periocular injection; diopter by eccentric infrared photo-refractor, ocular axis parameters by A-mode ultrasound; settings: guinea pig FD eyes, daily periocular injection, after 4 weeks
Experimental: (§1) The experimental animals used in this experiment were 3-week-old British shorthair three-colored guinea pigs (Cavia porcellus). Mask technique was used as a model of monocular form-deprivation (FD) myopia. In the myopic sclera HIF-1α expression experiment, the animals were randomly divided into three groups: the normal control group, FD 1 week group, and FD 1 week & 2-day recovery group. […] In the administration experiment, HIF-1α inhibitors salidroside and formononetin were administered to the form-deprived eyes by periocular injection to inhibit HIF-1α activity. The animals in the salidroside injection experiment were randomly divided into three groups: form-deprivation+solvent control group (FD+0.9% normal saline (NS)), form-deprivation+low concentration drug group (FD+SDS 1 μg), and form-deprivation+high concentration drug group (FD+SDS 10 μg). […] Before the experiment and after 2 weeks and 4 weeks of administration respectively, the diopter was measured with an eccentric infrared photo-refractor (EIR), and the ocular axis parameters such as vitreous chamber depth and ocular axis length were measured with amplitude-mode ultrasound (11 MHz). After the administration, the sclera was removed and the expression of HIF-1α and collagen type I were detected by Western Blot.

[2] = test system: scleral hypoxia-inducible factor-1α (HIF-1α); assay: Western Blot of scleral HIF-1α after administration in form-deprived eyes; settings: sclera removed after administration
Experimental: as §1

[3] = test system: collagen type I; assay: Western Blot of scleral collagen type I after administration in form-deprived eyes; settings: sclera removed after administration
Experimental: as §1

COc1ccc(-c2coc3cc(O)ccc3c2=O)cc1 [formononetin]
extension of ocular axis (ocular axis length difference) compared with solvent-injection group [1]: relatively smaller
myopia formation (diopter difference between experimental eyes and contralateral eyes) compared with form-deprivation solvent-injection group [1]: significantly reduced
up-regulation of HIF-1α expression in the sclera of FDM eyes [2]: inhibited
down-regulation of collagen (type I) expression in the sclera of FDM eyes [3]: inhibited
